Laboratory results: patent US20220257782A1, “PEPTIDE THERAPEUTICS FOR AUTOIMMUNE DISEASES AND INFLAMMATORY DISEASES” (GENESEN CO., LTD., priority 2019, published 2022)
Not every detail of the peptide structures is certain; ends, links or a residue may be inferred. Ends that are not written are not given here.

Assays:
TLR7 = target: T1, TLR7 (Mus musculus, UniProt P58681); experiment: TNF-α secretion in RAW264.7 cells stimulated by Imiquimod; type: cell-based; settings: FIG. 1F
T1 construct: the level of TNF-α secretion was measured in RAW264.7 cells after stimulating by other TLR ligands; endogenous in cells; host or cells: RAW264.7
T1 sequence (P58681 27-1050): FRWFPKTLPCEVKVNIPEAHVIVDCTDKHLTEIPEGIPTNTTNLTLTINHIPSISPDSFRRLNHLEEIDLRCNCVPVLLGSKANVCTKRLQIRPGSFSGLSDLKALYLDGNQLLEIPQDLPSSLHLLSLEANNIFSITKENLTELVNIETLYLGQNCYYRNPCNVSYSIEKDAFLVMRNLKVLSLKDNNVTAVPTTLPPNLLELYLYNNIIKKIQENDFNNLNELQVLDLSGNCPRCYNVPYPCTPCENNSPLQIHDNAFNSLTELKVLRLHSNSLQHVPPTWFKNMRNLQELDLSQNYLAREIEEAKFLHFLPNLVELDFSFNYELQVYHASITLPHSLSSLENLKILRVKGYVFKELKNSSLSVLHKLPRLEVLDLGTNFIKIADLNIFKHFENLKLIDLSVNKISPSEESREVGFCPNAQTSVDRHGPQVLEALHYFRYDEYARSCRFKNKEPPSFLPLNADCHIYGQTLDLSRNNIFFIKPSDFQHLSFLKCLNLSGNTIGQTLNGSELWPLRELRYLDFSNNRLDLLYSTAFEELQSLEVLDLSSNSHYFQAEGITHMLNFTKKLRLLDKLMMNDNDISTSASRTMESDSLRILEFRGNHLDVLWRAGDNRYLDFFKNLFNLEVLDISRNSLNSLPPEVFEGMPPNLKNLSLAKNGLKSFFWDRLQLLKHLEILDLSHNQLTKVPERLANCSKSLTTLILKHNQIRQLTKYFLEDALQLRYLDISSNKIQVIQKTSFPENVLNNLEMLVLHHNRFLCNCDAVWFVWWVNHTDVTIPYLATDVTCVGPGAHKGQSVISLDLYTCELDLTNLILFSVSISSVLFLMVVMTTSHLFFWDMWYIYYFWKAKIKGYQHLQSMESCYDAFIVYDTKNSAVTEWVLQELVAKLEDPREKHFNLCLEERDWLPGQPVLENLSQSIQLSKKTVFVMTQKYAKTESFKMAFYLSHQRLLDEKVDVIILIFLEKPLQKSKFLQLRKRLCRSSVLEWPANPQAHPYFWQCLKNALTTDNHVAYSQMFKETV

[1] = tested on: IMQ-induced psoriasis in C57BL/6 mice; experiment: Imiquimod-induced psoriasis mouse model; type: in vivo
Protocol: 6-7 week old C57BL/6 mice were purchased from Orient Bio Inc. (Seongnam, Korea). The mice were housed under specific pathogen-free conditions and provided ad libitum with a standard laboratory diet (STD). All the animal experiments were approved by the Institutional Animal Care and Use Committee (IACUC) of Ajou University (Approval No. 2017-0002). 62.5 mg of ALDARA™ cream (including 5% IMQ; Aldara, 3M Pharmaceutical LLC.) was applied for five consecutive days, resulting in symptoms similar to psoriasis. The normal group was not treated with IMQ but only injected with PBS. The mice were administered with MIP2 (1 nmol/g, 10 nmol/g, or 20 nmol/g) or PBS (control) one day before applying the ALDARA™ cream (5%). The mouse used as a positive control was administered with MTX (10 μg/g; Cat. No. M9929, Sigma-Aldrich) one day before the application of the IMQ cream. After 5 days, the mice were euthanized by respiratory anesthesia, and samples of skin lesions and spleen were collected for histological examination. To evaluate the degree of inflammation of the skin on the back, an objective scoring system was developed based on the clinical PASI. Factors such as erythema, scaling, wrinkles, and thickening were independently scored from 0 to 4: 0, none; 1, a little; 2, middle; 3, significant; 4, very prominent. Erythema, scaling, and thickness were scored under the close supervision of an experienced researcher. The cumulative score (erythema+scaling+thickening, grade 0 to grade 12) represents the severity of psoriasis symptoms.
A skin sample obtained from the dorsal lesion of each mouse was fixed in 4% paraformaldehyde solution, embedded in paraffin, and sectioned at a thickness of 7 μm on a glass slide. Sections were stained with H&E to determine the thickness of the epidermis and dermis. The thickness of the skin was measured using a Leica DMi8 fluorescence microscope which utilizes a Leica LAS X Hardware Configurator. IMQ-mediated inflammation in the skin was evaluated using a mouse-specific HRC/DAB Detection IHC Kit (Abcam, Cat. No. AB64259) with primary antibodies recognizing CD68, CD4, and IL-17.
MIP2 was injected intraperitoneally (i.p.) for 6 days at a dose of 1 nmol/g, 10 nmol/g, or 20 nmol/g (mouse weight). The same protocol was applied to mice which were injected with methotrexate (MTX) and PBS.

[2] = almost similar to MTX-treated mice, FIG. 5E
[3] = similar to the MTX-treated group, FIG. 5F

RQIKIWFQNRRMKWKKPWCKYQMLQALT [MIP2] was tested, and the “inhibition of TNF-α secretion, TLR7” value (TLR7) was “higher inhibitory effect than other TLRs”, the “thickness of the dermis (H&E)” value [1, 2] was “substantially reduced” and the “thickness of the epidermis (H&E)” value [1, 2] was “substantially reduced”. For the same sequence, the “disease symptoms (comparative phenotypic examination)” value ([1]; i.p. 1, 10 or 20 nmol/g for 6 days, FIG. 5A) was “attenuated disease symptoms to a degree similar to that of MTX”, the spleen weight ([1]; i.p. 1, 10 or 20 nmol/g, FIG. 5C) was “concentration-dependent decrease in spleen weight” and the PASI index ([1]; i.p. 1, 10 or 20 nmol/g, no concentration-dependent effect, FIG. 5B) was “significantly reduced the PASI index”. The “CD4 overexpression in skin lesions (immunohistochemistry)” value [1, 3] was “reduced overexpression”, the “CD68 overexpression in skin lesions (immunohistochemistry)” value [1, 3] was “reduced overexpression” and the “IL-17 overexpression in skin lesions (immunohistochemistry)” value [1, 3] was “reduced overexpression”.
